Data: patent US20220354892A1
These are yes or no findings as the source states them, for the method shown. Some results given as binding are weak or reduced against the parent protein; the word gives no strength.

By UniProt entry, the sequences of proteins in these tests, tags left out. Residues count along the entry.
UniProt Q02223, residues 1-54: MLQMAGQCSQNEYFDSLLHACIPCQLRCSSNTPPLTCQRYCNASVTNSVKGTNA

Target: Dylight-650 labelled recombinant BCMA (human) (UniProt Q02223)
Assay: flow cytometry of CAR T cells stained with labelled recombinant BCMA

B1: BCMA/TACI Dual Binder #1 CAR (CAR only) (protein)
chain: DIQMTQSPSSLSASVGDRVTITCRASQSISSYLNWYQQKPGKAPKLLIYAASSLQSGVPSRFSGSGSGTDFTLTISSLQPEDFATYYCQQSHIAPWTFGGGTKVEIKGSTSGSGKPGSGEGSTKGQVQLVQSGAEVKKPGSSVKVSCKASGGTFADYAISWVRQAPGQGLEWMGGIIPILGRANYAQKFQGRVTITADESTSTAYMELSSLRSEDTAVYYCARDRDSTSLPYNHYYMDVWGKGTTVTVSSGSLDNEKSNGTIIHVKGKHLCPSPLFPGPSKPFWVLVVVGGVLACYSLLVTVAFIIFWVRSKRSRLLHSDYMNMTPRRPGPTRKHYQPYAPPRDFAAYRSLRVKFSRSADAPAYQQGQNQLYNELNLGRREEYDVLDKRRGRDPEMGGKPRRKNPQEGLYNELQKDKMAEAYSEIGMKGERRRGKGHDGLYQGLSTATKDTYDALHMQALPPR
- binding: binds

B2: BCMA/TACI Dual Binder #3 CAR (CAR only) (protein)
chain: DIQLTQSPSSLSASVGDRVTITCRASQSISLYLNWYQQKPGKAPKLLIYAASSLQSGVPSRFSGSGSGTDFTLTISSLQPEDFATYYCQQVAVAPWTFGGGTKVEIKGSTSGSGKPGSGEGSTKGQVQLVQSGAEVKKPGSSVKVSCKASGGTFEHYAISWVRQAPGQGLEWMGGIIPILGRANYAQKFQGRVTITADESTSTAYMELSSLRSEDTAVYYCARDRSWEGSPYMYYGMDVWGQGTMVTVSSGSLDNEKSNGTIIHVKGKHLCPSPLFPGPSKPFWVLVVVGGVLACYSLLVTVAFIIFWVRSKRSRLLHSDYMNMTPRRPGPTRKHYQPYAPPRDFAAYRSLRVKFSRSADAPAYQQGQNQLYNELNLGRREEYDVLDKRRGRDPEMGGKPRRKNPQEGLYNELQKDKMAEAYSEIGMKGERRRGKGHDGLYQGLSTATKDTYDALHMQALPPR
- binding: binds
